Assay results from paper PMC12376542.
No constants are given. Whether binding was seen depends on the method and setting. Binding seen in cells or lysates may run through a third protein. Some entries that bind do so weakly or less than the wild type. For part of these data: Tags and fused reporters may be left off the sequences shown.

Chains of the proteins cited; added tags and fusions are not shown. Lines headed by an entry give the natural chain unless they say otherwise; changes in a name come on top. A line that says so, or that is headed by a name, gives the form on record, which may keep a tag or linker.
UniProt P53396: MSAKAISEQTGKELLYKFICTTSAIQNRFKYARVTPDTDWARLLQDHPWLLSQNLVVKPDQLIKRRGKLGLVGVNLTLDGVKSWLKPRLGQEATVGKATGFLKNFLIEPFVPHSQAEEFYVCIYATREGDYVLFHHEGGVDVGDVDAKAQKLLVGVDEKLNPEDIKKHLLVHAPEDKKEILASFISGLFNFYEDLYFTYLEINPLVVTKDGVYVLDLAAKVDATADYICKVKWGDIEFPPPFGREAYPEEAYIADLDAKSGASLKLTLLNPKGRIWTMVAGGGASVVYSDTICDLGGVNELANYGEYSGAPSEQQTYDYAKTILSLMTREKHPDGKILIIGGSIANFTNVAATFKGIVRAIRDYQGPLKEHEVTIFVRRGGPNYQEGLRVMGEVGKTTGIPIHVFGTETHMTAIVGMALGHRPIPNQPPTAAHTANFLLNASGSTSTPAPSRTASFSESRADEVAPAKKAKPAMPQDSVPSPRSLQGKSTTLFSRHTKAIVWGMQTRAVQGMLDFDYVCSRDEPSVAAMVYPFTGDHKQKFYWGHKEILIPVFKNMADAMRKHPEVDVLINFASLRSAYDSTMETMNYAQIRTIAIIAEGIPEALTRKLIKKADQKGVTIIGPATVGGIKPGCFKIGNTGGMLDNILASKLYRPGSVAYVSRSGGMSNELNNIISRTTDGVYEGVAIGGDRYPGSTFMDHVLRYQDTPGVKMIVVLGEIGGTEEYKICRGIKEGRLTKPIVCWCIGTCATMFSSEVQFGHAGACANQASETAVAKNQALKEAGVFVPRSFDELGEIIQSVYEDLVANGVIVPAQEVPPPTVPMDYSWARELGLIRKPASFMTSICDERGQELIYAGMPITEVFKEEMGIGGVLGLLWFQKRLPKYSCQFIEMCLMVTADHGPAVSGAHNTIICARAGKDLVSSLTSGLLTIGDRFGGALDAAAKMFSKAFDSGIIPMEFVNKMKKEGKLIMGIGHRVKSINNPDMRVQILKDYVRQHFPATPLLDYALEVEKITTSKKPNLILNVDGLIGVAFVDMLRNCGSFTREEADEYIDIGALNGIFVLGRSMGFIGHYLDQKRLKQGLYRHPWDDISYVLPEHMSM
ACLY with a nuclear export sequence (GFP‐ACLY‐NES) (P53396, form named): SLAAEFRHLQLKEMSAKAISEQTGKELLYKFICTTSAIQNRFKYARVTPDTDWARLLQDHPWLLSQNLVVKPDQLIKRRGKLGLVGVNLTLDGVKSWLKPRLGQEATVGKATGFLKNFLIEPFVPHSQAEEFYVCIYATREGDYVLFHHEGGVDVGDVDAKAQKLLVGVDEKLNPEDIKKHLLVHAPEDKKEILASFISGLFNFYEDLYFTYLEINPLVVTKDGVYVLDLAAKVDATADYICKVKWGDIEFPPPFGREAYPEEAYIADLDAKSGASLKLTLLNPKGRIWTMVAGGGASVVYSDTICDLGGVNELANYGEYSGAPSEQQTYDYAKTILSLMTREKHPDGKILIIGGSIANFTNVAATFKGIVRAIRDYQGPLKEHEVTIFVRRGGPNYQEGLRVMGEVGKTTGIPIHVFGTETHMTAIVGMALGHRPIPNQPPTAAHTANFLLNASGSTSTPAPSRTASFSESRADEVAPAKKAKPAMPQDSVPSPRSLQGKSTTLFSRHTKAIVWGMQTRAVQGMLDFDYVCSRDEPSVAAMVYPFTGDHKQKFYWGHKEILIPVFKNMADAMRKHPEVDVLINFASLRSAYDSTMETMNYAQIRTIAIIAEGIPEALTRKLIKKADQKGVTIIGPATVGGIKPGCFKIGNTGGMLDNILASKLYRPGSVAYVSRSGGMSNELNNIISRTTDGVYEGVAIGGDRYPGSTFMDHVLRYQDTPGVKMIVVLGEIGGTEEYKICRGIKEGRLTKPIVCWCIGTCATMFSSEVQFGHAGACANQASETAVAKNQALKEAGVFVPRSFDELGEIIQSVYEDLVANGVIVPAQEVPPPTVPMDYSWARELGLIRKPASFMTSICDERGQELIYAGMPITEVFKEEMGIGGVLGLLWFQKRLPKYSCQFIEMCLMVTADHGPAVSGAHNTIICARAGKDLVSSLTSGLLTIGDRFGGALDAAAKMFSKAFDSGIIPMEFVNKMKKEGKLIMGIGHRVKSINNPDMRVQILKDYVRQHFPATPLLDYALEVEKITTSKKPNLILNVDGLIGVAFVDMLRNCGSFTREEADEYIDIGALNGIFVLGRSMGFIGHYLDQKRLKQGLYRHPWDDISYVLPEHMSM
UniProt Q09472: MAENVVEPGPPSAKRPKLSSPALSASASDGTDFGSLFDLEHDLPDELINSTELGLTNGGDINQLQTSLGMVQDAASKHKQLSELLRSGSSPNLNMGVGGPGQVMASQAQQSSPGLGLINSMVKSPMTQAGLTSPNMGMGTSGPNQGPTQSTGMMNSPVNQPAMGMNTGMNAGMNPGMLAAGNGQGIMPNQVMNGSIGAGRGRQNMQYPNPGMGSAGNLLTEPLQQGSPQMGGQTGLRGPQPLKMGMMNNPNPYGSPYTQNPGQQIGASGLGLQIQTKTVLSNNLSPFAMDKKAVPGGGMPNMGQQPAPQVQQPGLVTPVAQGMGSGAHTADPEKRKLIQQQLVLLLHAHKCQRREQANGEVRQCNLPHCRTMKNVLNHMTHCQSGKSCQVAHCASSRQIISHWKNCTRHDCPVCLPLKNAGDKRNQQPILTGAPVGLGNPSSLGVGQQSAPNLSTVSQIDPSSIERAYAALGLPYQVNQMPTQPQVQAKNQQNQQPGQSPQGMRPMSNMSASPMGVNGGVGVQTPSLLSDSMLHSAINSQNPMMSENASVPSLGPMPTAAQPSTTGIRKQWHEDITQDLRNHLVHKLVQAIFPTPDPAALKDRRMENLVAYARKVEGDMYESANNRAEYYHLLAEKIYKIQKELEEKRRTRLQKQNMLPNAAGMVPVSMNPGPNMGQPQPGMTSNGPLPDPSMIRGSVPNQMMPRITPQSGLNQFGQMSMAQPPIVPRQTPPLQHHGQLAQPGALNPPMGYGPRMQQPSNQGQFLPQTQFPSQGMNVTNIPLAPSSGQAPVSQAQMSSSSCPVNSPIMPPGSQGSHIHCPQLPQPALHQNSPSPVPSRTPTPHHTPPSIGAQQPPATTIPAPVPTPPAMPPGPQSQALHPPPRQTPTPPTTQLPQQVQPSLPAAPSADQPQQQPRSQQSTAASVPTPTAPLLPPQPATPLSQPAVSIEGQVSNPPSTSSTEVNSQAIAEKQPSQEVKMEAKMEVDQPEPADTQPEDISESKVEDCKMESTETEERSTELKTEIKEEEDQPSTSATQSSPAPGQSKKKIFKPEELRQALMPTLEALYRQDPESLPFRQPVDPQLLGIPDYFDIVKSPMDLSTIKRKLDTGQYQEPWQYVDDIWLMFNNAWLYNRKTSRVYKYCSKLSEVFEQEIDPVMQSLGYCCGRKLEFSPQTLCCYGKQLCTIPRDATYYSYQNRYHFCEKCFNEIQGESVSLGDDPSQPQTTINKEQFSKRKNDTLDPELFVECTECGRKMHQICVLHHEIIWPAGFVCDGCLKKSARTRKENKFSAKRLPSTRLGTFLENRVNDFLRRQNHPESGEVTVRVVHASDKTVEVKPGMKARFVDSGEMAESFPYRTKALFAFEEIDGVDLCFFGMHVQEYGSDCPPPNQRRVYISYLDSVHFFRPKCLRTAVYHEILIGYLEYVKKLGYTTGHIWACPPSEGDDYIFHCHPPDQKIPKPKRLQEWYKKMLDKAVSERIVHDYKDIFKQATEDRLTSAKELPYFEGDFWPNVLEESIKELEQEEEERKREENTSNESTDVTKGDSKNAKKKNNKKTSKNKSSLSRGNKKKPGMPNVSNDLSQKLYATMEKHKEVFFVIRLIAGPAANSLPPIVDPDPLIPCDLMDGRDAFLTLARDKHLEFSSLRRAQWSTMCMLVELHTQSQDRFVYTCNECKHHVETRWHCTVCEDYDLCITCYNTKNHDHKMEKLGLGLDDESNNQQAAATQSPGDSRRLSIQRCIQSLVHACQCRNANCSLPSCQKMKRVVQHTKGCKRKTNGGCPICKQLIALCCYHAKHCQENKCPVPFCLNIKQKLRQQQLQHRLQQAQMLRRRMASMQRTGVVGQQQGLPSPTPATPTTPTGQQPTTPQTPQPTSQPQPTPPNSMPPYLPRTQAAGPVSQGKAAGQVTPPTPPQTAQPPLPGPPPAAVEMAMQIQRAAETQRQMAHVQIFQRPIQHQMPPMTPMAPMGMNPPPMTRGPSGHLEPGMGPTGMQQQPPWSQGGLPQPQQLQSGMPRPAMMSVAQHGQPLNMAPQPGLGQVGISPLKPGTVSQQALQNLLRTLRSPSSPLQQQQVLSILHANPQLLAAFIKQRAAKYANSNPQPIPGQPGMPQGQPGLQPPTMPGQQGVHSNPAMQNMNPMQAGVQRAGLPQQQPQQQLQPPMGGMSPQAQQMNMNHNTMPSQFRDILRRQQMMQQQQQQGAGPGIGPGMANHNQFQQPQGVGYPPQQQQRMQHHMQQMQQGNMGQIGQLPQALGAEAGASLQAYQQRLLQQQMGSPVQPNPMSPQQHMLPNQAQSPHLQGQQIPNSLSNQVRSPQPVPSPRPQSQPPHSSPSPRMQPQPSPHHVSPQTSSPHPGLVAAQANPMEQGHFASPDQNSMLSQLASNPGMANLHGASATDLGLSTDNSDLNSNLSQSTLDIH

Key:
[1] = biological target: Exogenous wild-type ACLY (FLAG-ACLY) (human) (UniProt P53396); assay: co-IP; NIH3T3 cells, transiently transfected for 48 h; IP lysis buffer; anti‐Flag magnetic beads overnight at 4 °C; western blot
[2] = biological target: ACLY with a nuclear export sequence (GFP‐ACLY‐NES) (human) (UniProt P53396); assay: as above
[3] = biological target: Exogenous wild-type ACLY (FLAG-ACLY) (human) (UniProt P53396); assay: co-IP; HEK293T cells, transiently transfected for 48 h; IP lysis buffer; anti‐Flag magnetic beads overnight at 4 °C; western blot
[4] = biological target: ACLY with a nuclear export sequence (GFP‐ACLY‐NES) (human) (UniProt P53396); assay: as above
[5] = biological target: T1, ATP‐citrate lyase (ACLY), endogenous in mouse embryos (mouse (endogenous in 8-cell embryos)) (UniProt Q91V92); assay: proximity ligation; Duolink In Situ PLA on fixed (4% PFA) mouse 8‐cell stage embryos; endogenous proteins
T1 sequence: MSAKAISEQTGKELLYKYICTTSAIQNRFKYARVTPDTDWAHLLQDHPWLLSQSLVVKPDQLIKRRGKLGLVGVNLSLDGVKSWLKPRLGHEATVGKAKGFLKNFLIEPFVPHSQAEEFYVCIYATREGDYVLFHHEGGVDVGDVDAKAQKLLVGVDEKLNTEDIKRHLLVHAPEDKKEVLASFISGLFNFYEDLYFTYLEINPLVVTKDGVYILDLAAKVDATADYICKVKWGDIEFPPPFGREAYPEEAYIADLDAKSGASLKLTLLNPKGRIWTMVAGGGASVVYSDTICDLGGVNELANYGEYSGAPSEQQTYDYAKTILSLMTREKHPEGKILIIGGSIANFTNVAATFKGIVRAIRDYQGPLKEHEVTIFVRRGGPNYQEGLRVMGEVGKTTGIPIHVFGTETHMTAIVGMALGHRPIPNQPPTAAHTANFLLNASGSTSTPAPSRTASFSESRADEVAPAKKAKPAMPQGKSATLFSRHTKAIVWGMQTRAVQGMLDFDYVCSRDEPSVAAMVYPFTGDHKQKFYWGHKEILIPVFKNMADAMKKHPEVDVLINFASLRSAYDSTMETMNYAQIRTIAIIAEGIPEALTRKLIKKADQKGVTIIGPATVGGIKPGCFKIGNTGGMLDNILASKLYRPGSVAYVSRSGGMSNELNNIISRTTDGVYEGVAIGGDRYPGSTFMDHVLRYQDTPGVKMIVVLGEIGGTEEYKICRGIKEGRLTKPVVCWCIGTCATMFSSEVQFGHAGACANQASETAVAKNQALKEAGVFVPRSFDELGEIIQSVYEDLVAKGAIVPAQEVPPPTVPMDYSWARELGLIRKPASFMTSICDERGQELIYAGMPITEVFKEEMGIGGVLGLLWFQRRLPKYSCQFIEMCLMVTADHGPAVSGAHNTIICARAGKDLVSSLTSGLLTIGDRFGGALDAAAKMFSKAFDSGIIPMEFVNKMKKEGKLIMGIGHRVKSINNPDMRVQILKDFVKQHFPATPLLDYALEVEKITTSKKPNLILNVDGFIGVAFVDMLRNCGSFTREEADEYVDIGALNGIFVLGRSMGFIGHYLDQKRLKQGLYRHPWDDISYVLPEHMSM

Measured: binding

Exogenous HAT1 (tagged, from human full-length cDNA) (from UniProt O14929 1-419) (enzyme)
not listed: [5]
binds: all other assays above

HA‐P300 (from UniProt Q09472 1-2414) (enzyme)
not listed: [5]
binds: all other assays above

B1: histone acetyltransferase 1 (HAT1), endogenous in mouse embryos (enzyme, UniProt Q8BY71 1-416)
chain: MAALEKFLVEYKSAVEKKLAEYKCNTNTAIELKLVRFPEDLENDIRTFFPEYTHQLFGDDETAFGYKGLKILLYYIAGSLSTLFRVEYSSKVDENFDCVEADDVEGKIRQIIPPGFCTNTNDFLSLLEKETNFKPFGTLLHTYTVPSQTGGETFTFQIHKADMTCRGFREYHERLQTFLMWFIETASFIDVDDERWHYFLVFEKYNKDGATLFATVGYMTVYNYYVYPDKTRPRVSQMLILTPFQGQGHGAQLLETVHRYYISFPTVLDITAEDPSRSYLKLRDFVLVKFCQFLPSFSRERLLQGFSEDMAIQAQQMFKINKQHARRVYEILRLLVTDMSDAEQYRSYRLDIKRRLISPYKKKQRDLAKMKKCLRPEELTNQMNQIEISVQHEQLEERFQELVEDYRRVIERLAQE
binds: [5]
